The values that follow come from publication PMC5114397.

The chains behind the UniProt entries cited, without tags or fusion partners.
UniProt Q96QZ7: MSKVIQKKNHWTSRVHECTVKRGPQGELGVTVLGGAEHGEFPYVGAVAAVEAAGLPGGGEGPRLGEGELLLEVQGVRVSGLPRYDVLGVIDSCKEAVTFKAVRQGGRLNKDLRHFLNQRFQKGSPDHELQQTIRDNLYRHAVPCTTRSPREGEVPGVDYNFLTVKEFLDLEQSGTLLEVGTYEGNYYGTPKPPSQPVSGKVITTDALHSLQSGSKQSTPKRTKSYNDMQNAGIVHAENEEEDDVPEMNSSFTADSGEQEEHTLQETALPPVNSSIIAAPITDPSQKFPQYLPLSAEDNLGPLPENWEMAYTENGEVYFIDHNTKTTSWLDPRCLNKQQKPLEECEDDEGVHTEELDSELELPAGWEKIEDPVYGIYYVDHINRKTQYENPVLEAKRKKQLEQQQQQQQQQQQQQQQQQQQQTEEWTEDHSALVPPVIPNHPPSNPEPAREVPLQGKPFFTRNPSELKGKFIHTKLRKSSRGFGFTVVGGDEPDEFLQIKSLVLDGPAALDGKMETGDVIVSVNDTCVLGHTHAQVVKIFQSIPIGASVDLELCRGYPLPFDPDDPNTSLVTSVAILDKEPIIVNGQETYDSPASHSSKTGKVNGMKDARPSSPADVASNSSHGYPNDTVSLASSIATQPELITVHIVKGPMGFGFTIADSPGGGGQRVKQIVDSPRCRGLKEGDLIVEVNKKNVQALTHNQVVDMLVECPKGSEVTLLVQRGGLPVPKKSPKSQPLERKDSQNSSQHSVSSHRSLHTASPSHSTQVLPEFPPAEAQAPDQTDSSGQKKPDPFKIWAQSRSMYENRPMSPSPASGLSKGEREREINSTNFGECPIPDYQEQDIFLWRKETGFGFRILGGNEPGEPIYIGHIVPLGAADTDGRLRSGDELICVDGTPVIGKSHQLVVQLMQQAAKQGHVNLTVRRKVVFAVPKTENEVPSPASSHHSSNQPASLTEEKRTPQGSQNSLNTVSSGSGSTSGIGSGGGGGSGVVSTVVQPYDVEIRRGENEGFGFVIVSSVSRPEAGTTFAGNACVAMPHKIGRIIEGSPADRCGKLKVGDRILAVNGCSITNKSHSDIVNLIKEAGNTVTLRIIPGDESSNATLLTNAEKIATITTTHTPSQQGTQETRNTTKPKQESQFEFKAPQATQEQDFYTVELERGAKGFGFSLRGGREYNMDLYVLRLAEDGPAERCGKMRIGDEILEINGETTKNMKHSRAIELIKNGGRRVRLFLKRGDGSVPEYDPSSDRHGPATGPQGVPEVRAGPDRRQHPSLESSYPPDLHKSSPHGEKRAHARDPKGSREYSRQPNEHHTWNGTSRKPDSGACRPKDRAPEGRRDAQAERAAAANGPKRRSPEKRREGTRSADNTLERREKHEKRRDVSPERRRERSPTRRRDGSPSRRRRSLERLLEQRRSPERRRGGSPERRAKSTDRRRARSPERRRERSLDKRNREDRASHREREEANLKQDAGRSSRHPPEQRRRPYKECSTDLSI

The experiment has as its target Myc-MAGI-1 (membrane-associated guanylate kinase 1) (UniProt Q96QZ7). The experiment in a line: co-IP; 293T cells doubly transfected with a Myc-tagged bait and a FLAG-tagged prey; total cellular lysates incubated with Myc beads overnight at 4 °C, beads washed three times and boiled; Western blot with anti-FLAG M2.

No constants are given. Whether binding was seen depends on the method and setting. Binding seen in cells or lysates may run through a third protein. Some results given as binding are weak or reduced against the parent protein; the word gives no strength. Tags and fused reporters may be left off the sequences shown.

B1: FLAG-tagged nephrin (protein, UniProt O60500 23-1241)
chain: QLAIPASVPRGFWALPENLTVVEGASVELRCGVSTPGSAVQWAKDGLLLGPDPRIPGFPRYRLEGDPARGEFHLHIEACDLSDDAEYECQVGRSEMGPELVSPRVILSILVPPKLLLLTPEAGTMVTWVAGQEYVVNCVSGDAKPAPDITILLSGQTISDISANVNEGSQQKLFTVEATARVTPRSSDNRQLLVCEASSPALEAPIKASFTVNVLFPPGPPVIEWPGLDEGHVRAGQSLELPCVARGGNPLATLQWLKNGQPVSTAWGTEHTQAVARSVLVMTVRPEDHGAQLSCEAHNSVSAGTQEHGITLQVTFPPSAIIILGSASQTENKNVTLSCVSKSSRPRVLLRWWLGWRQLLPMEETVMDGLHGGHISMSNLTFLARREDNGLTLTCEAFSEAFTKETFKKSLILNVKYPAQKLWIEGPPEGQKLRAGTRVRLVCLAIGGNPEPSLMWYKDSRTVTESRLPQESRRVHLGSVEKSGSTFSRELVLVTGPSDNQAKFTCKAGQLSASTQLAVQFPPTNVTILANASALRPGDALNLTCVSVSSNPPVNLSWDKEGERLEGVAAPPRRAPFKGSAAARSVLLQVSSRDHGQRVTCRAHSAELRETVSSFYRLNVLYRPEFLGEQVLVVTAVEQGEALLPVSVSANPAPEAFNWTFRGYRLSPAGGPRHRILSSGALHLWNVTRADDGLYQLHCQNSEGTAEARLRLDVHYAPTIRALQDPTEVNVGGSVDIVCTVDANPILPGMFNWERLGEDEEDQSLDDMEKISRGPTGRLRIHHAKLAQAGAYQCIVDNGVAPPARRLLRLVVRFAPQVEHPTPLTKVAAAGDSTSSATLHCRARGVPNIVFTWTKNGVPLDLQDPRYTEHTYHQGGVHSSLLTIANVSAAQDYALFTCTATNALGSDQTNIQLVSISRPDPPSGLKVVSLTPHSVGLEWKPGFDGGLPQRFCIRYEALGTPGFHYVDVVPPQATTFTLTGLQPSTRYRVWLLASNALGDSGLADKGTQLPITTPGLHQPSGEPEDQLPTEPPSGPSGLPLLPVLFALGGLLLLSNASCVGGVLWQRRLRRLAEGISEKTEAGSEEDRVRNEYEESQWTGERDTQSSTVSTTEAEPYYRSLRDFSPQLPPTQEEVSYSRGFTGEDEDMAFPGHLYDEVERTYPPSGAWGPLYDEVQMGPWDLHWPEDTYQDPRGIYDQVAGDLDTLEPDSLPFELRGHLV
With B1, the binding entry is recorded as “binds”.

B2: FLAG-tagged neph1 (protein, UniProt Q96J84 17-757)
chain: QGTQTRFSQEPADQTVVAGQRAVLPCVLLNYSGIVQWTKDGLALGMGQGLKAWPRYRVVGSADAGQYNLEITDAELSDDASYECQATEAALRSRRAKLTVLIPPEDTRIDGGPVILLQAGTPHNLTCRAFNAKPAATIIWFRDGTQQEGAVASTELLKDGKRETTVSQLLINPTDLDIGRVFTCRSMNEAIPSGKETSIELDVHHPPTVTLSIEPQTVQEGERVVFTCQATANPEILGYRWAKGGFLIEDAHESRYETNVDYSFFTEPVSCEVHNKVGSTNVSTLVNVHFAPRIVVDPKPTTTDIGSDVTLTCVWVGNPPLTLTWTKKDSNMVLSNSNQLLLKSVTQADAGTYTCRAIVPRIGVAEREVPLYVNGPPIISSEAVQYAVRGDGGKVECFIGSTPPPDRIAWAWKENFLEVGTLERYTVERTNSGSGVLSTLTINNVMEADFQTHYNCTAWNSFGPGTAIIQLEEREVLPVGIIAGATIGASILLIFFFIALVFFLYRRRKGSRKDVTLRKLDIKVETVNREPLTMHSDREDDTASVSTATRVMKAIYSSFKDDVDLKQDLRCDTIDTREEYEMKDPTNGYYNVRAHEDRPSSRAVLYADYRAPGPARFDGRPSSRLSHSSGYAQLNTYSRGPASDYGPEPTPPGPAAPAGTDTTSQLSYENYEKFNSHPFPGAAGYPTYRLGYPQAPPSGLERTPYEAYDPIGKYATATRFSYTSQHSDYGQRFQQRMQTHV
With B2, the binding result is recorded as “binds”.
